Measurements taken from patent US20240209088A1.
No constants are given. Whether binding was seen depends on the method and setting. Some results given as binding are weak or reduced against the parent protein; the word gives no strength.

Columns and labels:
[1] = molecular target: full-length human CD4 on cells (human) (UniProt P01730); assay: live-cell immunofluorescence of CHO-hCD4 cells, unlabeled Nb detected with anti-VHH Cy5 secondary antibody
[2] = molecular target: full-length human CD4 on cells (human) (UniProt P01730); assay: live-cell staining of CHO-hCD4 cells, immunofluorescence

B1: CD4-Nb1 (VHH)
VHH: EVQLVESGGGLVQPGGSLRLSCAASGFTFSKLAMSWHREPPGKGREWLADIDSSGDTTDYLASVKGRFTISRDNAKNTLYLQMDSLKSEDTGVYYCASREDPPGYWGQGTQVTVSS
- binding [1]: binds
- binding [2]: binds
